Results published in PubChem BioAssay AID2685 (National Center for Advancing Translational Sciences (NCATS), 2010).
Among all 320,000 compounds or so, about 2,100 (0.66%) were called active. This list was built around the results that the source calls inconclusive (neither active nor inactive); the mix of calls is not that of the screen. Calls come from the whole dose curve; as a rule, active = well fitted inhibition curve with a large enough effect in the signal ratio, with a control signal flat (not every such curve was filed as active); inconclusive = small, poorly fitted or top-dose-only effect, or effect the other way, or a change in a side signal; inactive = flat fitted curve, though single readings scatter; the % refers to the signal ratio. A potency beside an inconclusive call is a rough fit, not a confirmed value.

Experiment: qHTS Assay for Lipid Storage Modulators in Drosophila S3 Cells
Conditions: BODIPY lipid droplet fluorescence, 18-24 h, cells fed with added oleic acid; lipid storage change, negative = inhibition: at 46.1 µM (top of the series) unless noted
Procedure, shortened: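 Drosophila S3 cells got compounds at several concentrations plus oleic acid (400 uM solution). Laser-scanning cytometry with 488 nm excitation read lipid droplets at 500-530 nm and cells at 575-640 nm. Percent activity was relative to 20 uM Triacsin C.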
% is set by controls: 0 for no effect and ±100 for the full control effect; potency is the fitted concentration of half-maximal effect.

| SMILES | lipid storage change, negative = inhibition | Potency |
| --- | --- | --- |
| CCC(C)(C)NC(=O)c1ccc2c(c1)N(CC(=O)N1CCCC1)C(=O)C(C)(C)O2 | inconclusive: -2.32% |  |
| CC(=O)/C(=N\Nc1ccccc1Cl)Sc1cccc2cccnc12 |  | inconclusive: 29.1 µM [falling, single point] |
| Cc1ccccc1-n1c(=S)[nH]c2nc3c(cc2c1=O)COC(C)(C)C3 |  | inconclusive: 0.461 µM [falling, full curve, poor fit] |
| CN1C(=O)C(O)(CC(=O)/C=C\c2ccc3c(c2)OCO3)c2ccccc21 (stereo unspecified) |  | active: 0.366 µM |
| Cc1ccc(S(=O)(=O)N(CC2CO2)c2cc(Cl)ccc2Cl)cc1 (stereo unspecified) |  | inconclusive: 11.6 µM [falling, single point] |
| COc1ccccc1NC(=O)N(Cc1ccc2c(c1)OCO2)Cc1nc2ccccc2c(=O)[nH]1 |  | inconclusive: 0.366 µM [activator, full curve] |
| CC(=O)Nc1ccc(S(=O)(=O)NC2CCCCCC2)cc1 | inconclusive: 2.42% |  |
| Cc1ccc(S(=O)(=O)N2CCCCC2)cc1NC(=O)CSc1ncn[nH]1 | inconclusive: 1.21% |  |
| CN1CCN(CCCNC(=O)CCC(=O)N2CCOc3ccccc32)CC1 | inconclusive: 26.3% |  |
| O=C(O)c1cc(=O)c2cc(Cl)ccc2o1 |  | active: 23.1 µM |
| CC(=O)c1ccc(N2CCN(C(=O)CCS(=O)(=O)c3ccc(C)cc3)CC2)cc1 |  | inconclusive: 3.26 µM [activator, single point] |
| CN(CCC(=O)Nc1cc(S(=O)(=O)N(C)C)ccc1Cl)CC(=O)Nc1ccc(F)cc1 |  | inconclusive: 6.51 µM [activator, single point] |
| CCn1c(OC)nc2c1c(=O)n(C)c(=O)n2C | inconclusive: 19.7% |  |
| Cc1ccc(C2=NNC(=O)C(P(=O)(c3ccccc3)c3ccccc3)C2)cc1 (stereo unspecified) | inactive: 23.4% |  |
| CCN(CC(=O)NCc1cccs1)CC(=O)Nc1cccc(S(N)(=O)=O)c1 | inconclusive: 29.9% |  |
| Cc1ccc(S(=O)(=O)NCCNc2ccc([N+](=O)[O-])cc2C(F)(F)F)cc1 | inconclusive: -78% |  |
| COCCn1c(-c2ccccc2)nc2ccccc21 | inconclusive: 1.23% |  |
| COCCn1c(C)cc(C(=O)COC(=O)CNC(=O)c2ccco2)c1C | inconclusive: 1.24% |  |
| COc1cccc(CC(=O)N[C@@H](CCSC)c2nc3ccccc3[nH]2)c1 | inconclusive: 22.7% |  |
| O=C(CCCOc1ccccc1)NCc1ccco1 | inconclusive: 498% |  |
| COc1ccc(NC(=O)CCCCCN2C(=O)[C@@H]3Cc4ccccc4CN3C2=O)cc1Cl |  | inconclusive: 2.31 µM [activator, partial curve, poor fit] |
| CCOc1ccc(C(=O)CCC(=O)N2CCC(C(=O)OC)CC2)cc1 |  | inconclusive: 32.6 µM [falling, single point] |
| O=C(Sc1cccc2cccnc12)c1ccccc1Br |  | active: 7.31 µM |
| COc1ccc(CCC(=O)Nc2ccc(C)c([N+](=O)[O-])c2)cc1 |  | inconclusive: 29.1 µM [activator, single point] |
| COc1cccc(OC)c1OCCCCCCN1CCN(C)CC1 | inconclusive: -26.1% |  |
| CCOc1ccc(CCNC(=O)c2nnc(Cc3ccc(F)cc3)o2)cc1OCC | inactive: 5.14% |  |

| SMILES | lipid storage change, negative = inhibition | Potency |
| --- | --- | --- |
| O=C1C(=O)N(CCN2CCOCC2)C(c2cccnc2)/C1=C(/O)c1ccccc1 (stereo unspecified) | inactive: 16.1% |  |
| O=S(=O)(c1ccccc1Cl)N1CCC(O)(c2ccc3c(c2)OCO3)CC1 | inconclusive: 28.8% |  |
| COc1cccc(NC(=O)COC(=O)C2CCN(S(=O)(=O)c3cccs3)CC2)c1 | inconclusive: 15.7% |  |
| COC(=O)NCC12CC3CC(C1)CC(CNC(=O)OC)(C3)C2 | inconclusive: -2.36% |  |
| O=C(NCc1ccncc1)C1COc2ccccc2O1 (stereo unspecified) | inconclusive: 9.64% |  |
| COc1ccc(Sc2nc(-c3ccccn3)ncc2OC)cc1 | inconclusive: -14.6% |  |
| Cc1cc(NC(=O)c2ccccc2O)nc(C)n1 | inconclusive: -0.0027% |  |
| CC(OC(=O)c1ccc([N+](=O)[O-])s1)C(=O)NC1CCCCC1C (stereo unspecified) | inconclusive: -100% |  |
| CN1CCN(NC(=O)/C=C/c2ccc(C(C)(C)C)cc2)CC1 |  | inconclusive: 0.651 µM [falling, partial curve, poor fit] |
| Cc1cccc(C)c1NC(=O)CN(C)C(=O)c1ccccc1OCc1ccc(F)cc1 |  | inconclusive: 0.58 µM [activator, single point] |
| c1cc(-c2noc(CCC3CCCC3)n2)ccn1 |  | inconclusive: 14.6 µM [activator, partial curve, poor fit] |
| O=C(NCCCO)c1ccc(CSc2nc3ccccc3[nH]2)cc1 | inconclusive: -28.6% |  |
| Cc1nc2cc(Nc3nnc(-c4ccccc4)c4ccccc34)ccc2n1C |  | active: 11.6 µM |
| Cc1ccc(NNC(N)=S)cc1Cl | inactive: 10.3% |  |
| Cc1ccc(S(=O)(=O)NCC(=O)OCc2nnc(-c3ccccc3)o2)cc1 | inconclusive: 0.481% |  |
| COc1cc(/C=N/NC(=O)c2cccnc2)ccc1OS(=O)(=O)c1ccc(C)cc1 | inconclusive: -17.6% |  |
| O=C(CSc1nc(O)cc(=O)[nH]1)N1CCCc2ccccc21 | inconclusive: -20% |  |
| O=[N+]([O-])c1ccc(C2CCCC/C2=N/OCc2ccc(F)cc2)c([N+](=O)[O-])c1 (stereo unspecified) |  | inconclusive: 29.1 µM [falling, single point] |
| CCOC(=O)CCCNC(=O)CN1C(=O)NC2(CCCCCC2)C1=O | inconclusive: -34.9% |  |
| CCN(CC(=O)Nc1ccc(NC(C)=O)cc1)C(=O)C1(c2ccccc2)CC1 | inconclusive: -27.9% |  |
| COc1ccc(NC(=O)CCc2nc(-c3ccc(C)cc3)no2)cc1Cl | inconclusive: 45.9% |  |
| COc1cccc(C(=O)NNC(=O)c2ccccc2Br)c1 | inconclusive: -4.02% |  |
| COc1ccc2cc(C(=O)N3CCN(c4ccc(F)cc4)CC3)[nH]c2c1 | inconclusive: 26.1% |  |
| CCOc1cccc(C(=O)Nc2cccc(C(C)=O)c2)c1 | inconclusive: -16.1% |  |
| COc1cc2ccccc2cc1C(=O)N/N=C/c1ccc2c(c1)OCO2 |  | inconclusive: 6.51 µM [activator, partial curve, poor fit] |

Molecules above containing bromine (2):

| SMILES | lipid storage change, negative = inhibition | Potency |
| --- | --- | --- |
| O=C(Sc1cccc2cccnc12)c1ccccc1Br |  | active: 7.31 µM |
| COc1cccc(C(=O)NNC(=O)c2ccccc2Br)c1 | inconclusive: -4.02% |  |

Reformatted with each value named: entries from further up
CC(OC(=O)c1ccc([N+](=O)[O-])s1)C(=O)NC1CCCCC1C (stereo unspecified)
  lipid storage change, negative = inhibition: inconclusive: -100%
COc1cccc(C(=O)NNC(=O)c2ccccc2Br)c1
  lipid storage change, negative = inhibition: inconclusive: -4.02%
